Reference: PubChem BioAssay AID1347076 (National Center for Advancing Translational Sciences (NCATS), 2019)
The campaign covered roughly 400,000 compounds. About 13,000 (3.2%) were called active. The inconclusive results got no clear call from the source; some entries with a clear call stand among them for comparison. The call rests on the fitted dose curve; in most records, active means well fitted cell-killing curve with a large enough effect; inconclusive means small, poorly fitted or top-dose-only effect, or effect the other way; inactive means flat fitted curve, though single readings scatter. A potency beside an inconclusive call is a rough fit, not a confirmed value.

Experiment: qHTS assay for MDR1-selective chemotherapeutics: Primary screen using the drug-selected MDR subline cells KB-V1; further: nearly all actives have a fitted effect of over 60% in size
Details: KB-V1 MDR cells viability, CellTiter-Glo, 72 h; activity change, negative = cytotoxicity: at 46.1 µM (top of the series)
In short: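 Compound-treated KB-V1 multidrug-resistant cells, 72 h, 37 degrees C; viability by CellTiter-Glo. Fitted qHTS curves give the values.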
On the % scale 0 is the no-effect control and ±100 the full control effect; potency means the concentration at half of the fitted maximal effect.

Row | SMILES | activity change, negative = cytotoxicity | Potency
1 | Cc1ccc(S(=O)(=O)N2C(=O)CCC2C(=O)O/N=C(\N)c2ccc([N+](=O)[O-])cc2)cc1 (stereo not given) | inactive: 14.7% | 
2 | O=C(NCCC(=O)N1CCN(c2cccc(Cl)c2)CC1)c1ccc(Br)cc1 |  | active: 23.1 µM
3 | O=C(COC(=O)c1cncc(Br)c1)NCc1ccccc1Cl | inactive: 3.71% | 
4 | Cc1ccc(N2CC(C(=O)OCC(=O)c3ccc(C)c([N+](=O)[O-])c3)CC2=O)cc1 (stereo not given) |  | inconclusive: 29.1 µM [rising, single point]
5 | CCCCNC(=O)C1(C)CCCCN1C(=O)c1cc(C#N)cs1 (stereo not given) | inactive: 1.48% | 
6 | Cc1cc(C)cc(NC(=O)c2cc(C)nc3c2c(C)nn3-c2ccccc2)c1 |  | inconclusive: 13 µM [cytotoxic, partial curve]
7 | Cc1nn(Cc2ccc(C(=O)NN)o2)c(C)c1Cl | inactive: -5.27% | 
8 | CCOc1ccc(NC(=O)c2cc3c(C)nn(-c4ccccc4)c3s2)cc1 | inactive: -2.54% | 
9 | CCn1c2ccccc2c2cc(NC(=O)c3cc(OC)cc(OC)c3)ccc21 |  | active: 2.31 µM
10 | O=C1NC2(C=Cc3c(ccc4ccccc34)O2)Oc2ccccc21 (stereo not given) |  | inconclusive: 20.6 µM [cytotoxic, single point]
11 | COc1ccc(OC)c(C(=O)c2c(C)oc3cc(Br)c(O)c(CN(C)C)c23)c1 |  | inconclusive: 13 µM [cytotoxic, partial curve]
12 | CCn1cc(CNCc2cn(-c3ccccc3C)nc2-c2ccc(OC)c(F)c2)cn1 |  | inconclusive: 9.2 µM [cytotoxic, partial curve]
13 | COc1cccc(NC(=O)NNC(=O)CCc2ccc(O)c(O)c2)c1 |  | inconclusive: 18.4 µM [rising, single point]
14 | C=CC[C@H](CC(=O)N(CCO)Cc1ccccc1)C(=O)N[C@H](COC(=O)[C@@H](CC=C)Cc1ccc(F)cc1)Cc1c[nH]c2ccccc12 |  | inconclusive: 20.6 µM [cytotoxic, single point]
15 | Cc1ccc(S(=O)(=O)N2CCOC2CNC(=O)C(=O)NCCN(C)C)cc1 (stereo not given) |  | inconclusive: 18.4 µM [rising, partial curve, poor fit]
16 | COc1cccc(-c2cc3nc(-c4ccccc4)cc(N4CCC5(CC4)OCCO5)n3n2)c1 |  | inconclusive: 0.0065 µM [cytotoxic, full curve]
17 | CCCCNC(=O)C[C@@H]1C[C@@]2(C(=O)OCC)CCCC=C2N(CCc2ccc(OC)c(OC)c2)C1=O |  | inconclusive: 4.11 µM [cytotoxic, partial curve]
18 | Cc1[nH]c2c(C)cccc2c1CCNC(=O)c1ccc2c(c1[N+](=O)[O-])C(=O)c1ccccc1C2=O | inactive: -8.57% | 
19 | Cn1c(=O)c(C(=O)NNC(=O)c2ccccc2F)c(O)c2ccccc21 |  | inconclusive: 20.6 µM [cytotoxic, single point]
20 | Cc1noc2c1C(c1ccc(N(C)C)cc1)C1=C(CC(C)(C)CC1=O)N2 (stereo not given) |  | inconclusive: 8.2 µM [cytotoxic, partial curve, poor fit]
21 | Cc1occc1C(=O)N/N=C/c1ccc(-c2ccccc2)cc1 |  | active: 13 µM
22 | CC(C)NC(=O)C1CCC(Cn2c(=O)c3sccc3n(CC(=O)N3CCCC3)c2=O)CC1 (stereo not given) | inactive: 7.77% | 
23 | O=C(Nc1ccc(C(=O)N2CCOCC2)cc1)c1ccccc1 | inactive: 8.42% | 

Row | SMILES | activity change, negative = cytotoxicity | Potency
24 | CN(CC(=O)Nc1ccncc1)S(=O)(=O)c1ccccc1 |  | inconclusive: 23.1 µM [cytotoxic, single point]
25 | O=C(/C=C/Nc1ccc(Br)cc1F)c1ccco1 |  | inconclusive: 14.6 µM [cytotoxic, partial curve]
26 | O=C(Nc1ccncc1)c1ccc(N2CCCC2=O)cc1 |  | inconclusive: 29.1 µM [cytotoxic, single point]
27 | Cc1cccc(Cn2cc(/C=C(/C#N)C(=O)Nc3cccc(Cl)c3)c3ccccc32)c1 | inactive: -1.95% | 
28 | CCOC(=O)c1c(-c2ccccc2)csc1NC(=O)CSc1nnc(C)s1 |  | inconclusive: 23.1 µM [cytotoxic, single point]
29 | COCCSc1nc2sc3c(c2c(=O)n1-c1ccccc1)CCN(C)C3 |  | inconclusive: 14.6 µM [cytotoxic, single point]
30 | COc1ccc(NC(=O)CN2C(=O)C(C)(C)c3ccccc32)cc1Cl |  | inconclusive: 20.6 µM [cytotoxic, single point]
31 | COC(=O)c1ccc(OC(=O)CCN2C(=O)C3CCCCC3C2=O)cc1 (stereo not given) |  | inconclusive: 16.4 µM [cytotoxic, single point]
32 | O=C(CCN1C(=O)/C(=C\c2ccccc2F)SC1=S)N1CCCCC1 |  | inconclusive: 29.1 µM [cytotoxic, single point]
33 | CCOCCCn1c(C)nc2c(c1=O)c1nc3ccccc3nc1n2CCC1=CCCCC1 |  | active: 18.4 µM
34 | Cc1ccc(-n2c(Cn3c(C)nc4ccccc43)n[nH]c2=S)cc1 |  | inconclusive: 20.6 µM [rising, single point]
35 | Cc1ccc(NC(=S)N2CCC(NC(=O)c3ccc(C)cc3)CC2)cc1 |  | inconclusive: 2.59 µM [cytotoxic, partial curve]
36 | COc1cc(CNC(=O)c2sc3ncccc3c2-n2cccc2)cc(OC)c1OC | inactive: -2.49% | 
37 | CC(Sc1nc2ccccc2s1)C(=O)NC1CCCc2ccccc21 (stereo not given) |  | active: 20.6 µM
38 | Cc1ccc(-c2cc(C(=O)OCC(=O)Nc3ncc(C(F)(F)F)cc3Cl)c3ccccc3n2)cc1 | inactive: -5.66% | 
39 | COCCNC(=O)c1cc2c(=O)n(C)c3ccccc3c2n1C |  | inconclusive: 29.1 µM [cytotoxic, single point]
40 | Cc1cc(C(=O)CSc2nnc(N)s2)c(C)n1CCc1ccc(Cl)cc1 |  | inconclusive: 20.6 µM [cytotoxic, single point]
41 | N#Cc1nc(-c2ccc(COc3ccccc3)o2)oc1NCc1cccnc1 |  | inconclusive: 29.1 µM [cytotoxic, single point]
42 | Cc1cc(C(=O)CSc2ncccn2)c(C)n1Cc1ccco1 | inactive: 7.67% | 
43 | O=C(/C=C/c1ccc(Cl)cc1Cl)N(Cc1ccccc1)C1CCS(=O)(=O)C1 (stereo not given) |  | inconclusive: 20.6 µM [cytotoxic, partial curve, poor fit]
44 | CCOc1cc(CO)cc(Br)c1OCC(=O)O | inactive: -5.94% | 
45 | CN(C)CCCNC(=O)C[C@H]1C[C@H](C(=O)N2CCCCC2)[C@@]2(C)c3[nH]c4cc(-c5ccco5)ccc4c3CCN2C1=O | inactive: -0.49% | 

Random excerpt: 2 records from the list, in no set order.
Row | SMILES | activity change, negative = cytotoxicity | Potency
33 | CCOCCCn1c(C)nc2c(c1=O)c1nc3ccccc3nc1n2CCC1=CCCCC1 |  | active: 18.4 µM
36 | COc1cc(CNC(=O)c2sc3ncccc3c2-n2cccc2)cc(OC)c1OC | inactive: -2.49% | 
